No constants are given. Whether binding was seen depends on the method and setting. In cells and extracts the contact can be indirect. Some binding calls cover weakened binding; strength is not graded here.
Experiments:
[1] = molecular target: pr55Gag/Rluc (full-length HxB2 Gag fused to Renilla luciferase) (HIV-1 HxB2; Renilla reniformis) (UniProt P04591); experiment: co-immunoprecipitation with anti-CA (legend of FIG. 16)
[2] = molecular target: pr55Gag/Rluc (full-length HxB2 Gag fused to Renilla luciferase) (HIV-1 HxB2; Renilla reniformis) (UniProt P04591); experiment: co-immunoprecipitation with anti-CA, Western with anti-HA

Chains of the proteins cited; added tags and fusions are not shown. Lines headed by an entry give the natural chain unless they say otherwise; changes in a name come on top.
UniProt O95793: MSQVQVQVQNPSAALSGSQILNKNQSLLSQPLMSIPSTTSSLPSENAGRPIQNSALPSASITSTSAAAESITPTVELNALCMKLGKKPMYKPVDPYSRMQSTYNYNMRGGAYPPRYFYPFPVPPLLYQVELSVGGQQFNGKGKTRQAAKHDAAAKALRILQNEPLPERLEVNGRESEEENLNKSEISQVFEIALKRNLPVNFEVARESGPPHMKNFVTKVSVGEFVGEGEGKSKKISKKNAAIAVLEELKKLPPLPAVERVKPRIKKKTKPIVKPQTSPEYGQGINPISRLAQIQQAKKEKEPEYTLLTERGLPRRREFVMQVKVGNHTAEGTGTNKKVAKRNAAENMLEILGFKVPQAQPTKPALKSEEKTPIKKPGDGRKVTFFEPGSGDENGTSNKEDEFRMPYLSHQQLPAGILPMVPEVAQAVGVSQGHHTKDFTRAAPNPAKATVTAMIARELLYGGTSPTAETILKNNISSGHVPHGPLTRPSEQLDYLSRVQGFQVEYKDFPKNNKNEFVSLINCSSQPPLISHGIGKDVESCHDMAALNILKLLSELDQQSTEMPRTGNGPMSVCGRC

Staufen-HA (wild-type human Staufen, short isoform, HA-tagged) (from UniProt O95793 82-577)
binding [1]: binds | binding [2]: binds

From patent US20040241845A1
